# Measured values from the supplement of paper PMC10849652.
# Amino acid sequences for entries named in this document (tags omitted). A change or cut given only in a name is not applied to a line headed by its entry.
# UniProt O75182: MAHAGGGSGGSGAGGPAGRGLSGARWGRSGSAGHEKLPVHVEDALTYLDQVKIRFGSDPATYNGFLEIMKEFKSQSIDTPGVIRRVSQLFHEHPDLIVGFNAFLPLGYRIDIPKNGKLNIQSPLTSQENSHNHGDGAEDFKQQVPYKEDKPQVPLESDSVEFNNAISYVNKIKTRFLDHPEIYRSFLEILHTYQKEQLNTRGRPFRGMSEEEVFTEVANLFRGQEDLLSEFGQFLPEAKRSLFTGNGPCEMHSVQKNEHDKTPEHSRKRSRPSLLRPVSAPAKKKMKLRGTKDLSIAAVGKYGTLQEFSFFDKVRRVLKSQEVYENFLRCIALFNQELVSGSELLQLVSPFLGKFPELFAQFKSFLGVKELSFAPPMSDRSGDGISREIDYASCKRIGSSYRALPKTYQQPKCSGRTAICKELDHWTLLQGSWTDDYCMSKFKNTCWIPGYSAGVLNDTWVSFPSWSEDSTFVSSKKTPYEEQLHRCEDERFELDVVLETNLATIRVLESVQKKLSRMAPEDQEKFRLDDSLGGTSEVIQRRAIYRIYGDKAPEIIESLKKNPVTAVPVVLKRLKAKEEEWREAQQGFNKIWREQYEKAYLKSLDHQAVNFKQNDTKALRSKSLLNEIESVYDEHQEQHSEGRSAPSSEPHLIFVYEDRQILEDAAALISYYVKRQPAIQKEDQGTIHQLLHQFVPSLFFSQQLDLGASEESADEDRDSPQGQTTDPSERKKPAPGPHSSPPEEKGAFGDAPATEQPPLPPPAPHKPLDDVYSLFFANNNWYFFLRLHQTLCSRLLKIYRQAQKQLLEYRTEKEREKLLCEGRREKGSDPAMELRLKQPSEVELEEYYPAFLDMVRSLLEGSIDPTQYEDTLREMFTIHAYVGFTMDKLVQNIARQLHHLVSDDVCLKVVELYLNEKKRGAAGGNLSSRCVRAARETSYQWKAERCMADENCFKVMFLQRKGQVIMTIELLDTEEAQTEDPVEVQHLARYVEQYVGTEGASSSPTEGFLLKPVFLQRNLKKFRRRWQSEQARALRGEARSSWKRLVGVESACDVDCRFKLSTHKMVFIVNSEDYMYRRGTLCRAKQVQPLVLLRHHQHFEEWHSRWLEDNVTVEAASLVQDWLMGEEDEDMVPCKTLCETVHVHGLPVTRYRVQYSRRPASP
# UniProt P01008, whole entry, looked up: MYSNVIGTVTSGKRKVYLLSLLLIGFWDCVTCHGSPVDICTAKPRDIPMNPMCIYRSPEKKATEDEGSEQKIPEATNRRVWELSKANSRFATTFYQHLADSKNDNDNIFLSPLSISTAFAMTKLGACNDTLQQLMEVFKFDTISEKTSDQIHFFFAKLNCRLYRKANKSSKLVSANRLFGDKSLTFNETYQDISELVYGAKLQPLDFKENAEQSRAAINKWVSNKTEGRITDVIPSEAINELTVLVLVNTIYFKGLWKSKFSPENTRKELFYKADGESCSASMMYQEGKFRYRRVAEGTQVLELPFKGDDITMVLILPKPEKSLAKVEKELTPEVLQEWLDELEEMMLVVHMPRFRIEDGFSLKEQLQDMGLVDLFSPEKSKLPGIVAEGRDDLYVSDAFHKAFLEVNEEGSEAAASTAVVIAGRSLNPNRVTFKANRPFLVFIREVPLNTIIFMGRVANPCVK
# UniProt P43007: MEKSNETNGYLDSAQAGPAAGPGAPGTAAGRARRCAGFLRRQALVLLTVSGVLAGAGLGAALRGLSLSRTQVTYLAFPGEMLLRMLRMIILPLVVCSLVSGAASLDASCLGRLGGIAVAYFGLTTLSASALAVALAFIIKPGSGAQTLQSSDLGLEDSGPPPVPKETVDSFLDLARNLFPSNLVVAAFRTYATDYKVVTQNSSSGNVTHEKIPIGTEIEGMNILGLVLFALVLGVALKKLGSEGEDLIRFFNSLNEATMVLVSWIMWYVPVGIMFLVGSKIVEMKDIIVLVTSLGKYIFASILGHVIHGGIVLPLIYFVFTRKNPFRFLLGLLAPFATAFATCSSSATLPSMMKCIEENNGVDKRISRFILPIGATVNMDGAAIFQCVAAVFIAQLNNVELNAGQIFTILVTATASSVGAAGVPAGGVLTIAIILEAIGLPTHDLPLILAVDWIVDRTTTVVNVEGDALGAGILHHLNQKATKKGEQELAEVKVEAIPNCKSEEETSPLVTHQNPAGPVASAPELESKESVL
# UniProt Q96ES7: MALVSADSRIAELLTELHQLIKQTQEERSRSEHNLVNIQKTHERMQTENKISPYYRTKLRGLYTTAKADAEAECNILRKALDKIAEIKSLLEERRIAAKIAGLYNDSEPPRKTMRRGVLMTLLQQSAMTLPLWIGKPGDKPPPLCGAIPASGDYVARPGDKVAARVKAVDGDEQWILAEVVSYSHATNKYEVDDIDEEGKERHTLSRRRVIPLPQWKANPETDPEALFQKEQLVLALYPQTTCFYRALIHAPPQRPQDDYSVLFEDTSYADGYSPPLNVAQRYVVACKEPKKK
# UniProt P29353: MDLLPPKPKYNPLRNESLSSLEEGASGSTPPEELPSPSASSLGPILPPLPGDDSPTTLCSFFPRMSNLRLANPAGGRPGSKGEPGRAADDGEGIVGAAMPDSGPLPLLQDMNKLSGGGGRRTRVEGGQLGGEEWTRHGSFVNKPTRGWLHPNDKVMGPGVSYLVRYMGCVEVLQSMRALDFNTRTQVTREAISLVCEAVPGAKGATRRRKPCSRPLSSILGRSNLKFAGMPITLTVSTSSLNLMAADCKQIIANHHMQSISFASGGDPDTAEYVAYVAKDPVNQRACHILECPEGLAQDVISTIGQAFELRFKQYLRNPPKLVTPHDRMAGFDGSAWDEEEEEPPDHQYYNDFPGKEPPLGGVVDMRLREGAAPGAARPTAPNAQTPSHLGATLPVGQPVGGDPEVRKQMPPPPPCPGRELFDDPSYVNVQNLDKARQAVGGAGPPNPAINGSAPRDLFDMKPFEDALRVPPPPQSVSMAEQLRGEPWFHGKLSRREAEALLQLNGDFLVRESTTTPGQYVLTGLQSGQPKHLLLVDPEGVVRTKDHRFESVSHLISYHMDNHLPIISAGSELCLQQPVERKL
# UniProt Q9Y2K2: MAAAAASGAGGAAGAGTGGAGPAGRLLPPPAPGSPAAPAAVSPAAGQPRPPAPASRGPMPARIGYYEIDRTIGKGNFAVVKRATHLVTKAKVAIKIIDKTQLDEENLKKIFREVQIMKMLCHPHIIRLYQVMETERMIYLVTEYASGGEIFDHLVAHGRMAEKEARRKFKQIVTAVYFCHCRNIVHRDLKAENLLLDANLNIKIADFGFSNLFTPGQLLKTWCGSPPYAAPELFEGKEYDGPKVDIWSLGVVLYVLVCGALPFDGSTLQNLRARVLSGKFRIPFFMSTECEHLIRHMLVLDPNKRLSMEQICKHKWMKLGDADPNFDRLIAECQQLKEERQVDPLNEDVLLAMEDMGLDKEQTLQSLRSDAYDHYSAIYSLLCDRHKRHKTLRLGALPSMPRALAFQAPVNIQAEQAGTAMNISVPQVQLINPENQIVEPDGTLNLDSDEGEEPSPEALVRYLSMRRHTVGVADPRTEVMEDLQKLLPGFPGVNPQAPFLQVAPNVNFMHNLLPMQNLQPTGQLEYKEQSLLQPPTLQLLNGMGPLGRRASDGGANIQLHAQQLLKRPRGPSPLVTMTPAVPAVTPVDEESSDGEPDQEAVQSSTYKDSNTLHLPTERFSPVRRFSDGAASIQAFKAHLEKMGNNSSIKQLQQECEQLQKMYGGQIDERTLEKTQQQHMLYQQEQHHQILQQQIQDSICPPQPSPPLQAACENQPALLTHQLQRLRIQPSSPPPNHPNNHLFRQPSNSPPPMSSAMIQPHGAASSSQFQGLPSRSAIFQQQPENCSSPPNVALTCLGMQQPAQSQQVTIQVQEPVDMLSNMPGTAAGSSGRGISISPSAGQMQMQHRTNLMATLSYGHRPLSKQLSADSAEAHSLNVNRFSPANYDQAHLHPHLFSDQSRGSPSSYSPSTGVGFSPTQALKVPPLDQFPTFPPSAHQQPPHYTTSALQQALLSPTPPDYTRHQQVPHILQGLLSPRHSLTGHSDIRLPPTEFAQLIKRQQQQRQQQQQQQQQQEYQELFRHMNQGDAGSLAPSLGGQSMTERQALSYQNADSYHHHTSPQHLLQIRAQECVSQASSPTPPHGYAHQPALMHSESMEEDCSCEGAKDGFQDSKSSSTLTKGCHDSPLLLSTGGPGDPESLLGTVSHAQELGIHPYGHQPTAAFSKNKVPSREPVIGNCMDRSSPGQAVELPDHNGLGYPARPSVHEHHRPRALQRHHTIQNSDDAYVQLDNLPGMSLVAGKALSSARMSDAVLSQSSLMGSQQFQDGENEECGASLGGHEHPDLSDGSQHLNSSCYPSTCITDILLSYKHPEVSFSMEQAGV
# UniProt Q7L8J4: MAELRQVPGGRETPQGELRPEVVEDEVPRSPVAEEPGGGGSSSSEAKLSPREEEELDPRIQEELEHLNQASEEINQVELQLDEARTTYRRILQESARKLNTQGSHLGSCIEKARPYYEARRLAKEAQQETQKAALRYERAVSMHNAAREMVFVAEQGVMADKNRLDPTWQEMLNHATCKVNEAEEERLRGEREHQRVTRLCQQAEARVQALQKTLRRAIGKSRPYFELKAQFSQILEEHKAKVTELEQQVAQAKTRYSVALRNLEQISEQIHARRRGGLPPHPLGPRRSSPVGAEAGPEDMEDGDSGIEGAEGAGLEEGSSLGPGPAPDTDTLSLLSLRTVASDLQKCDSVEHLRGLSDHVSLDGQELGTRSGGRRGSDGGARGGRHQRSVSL
# UniProt Q2VWA4: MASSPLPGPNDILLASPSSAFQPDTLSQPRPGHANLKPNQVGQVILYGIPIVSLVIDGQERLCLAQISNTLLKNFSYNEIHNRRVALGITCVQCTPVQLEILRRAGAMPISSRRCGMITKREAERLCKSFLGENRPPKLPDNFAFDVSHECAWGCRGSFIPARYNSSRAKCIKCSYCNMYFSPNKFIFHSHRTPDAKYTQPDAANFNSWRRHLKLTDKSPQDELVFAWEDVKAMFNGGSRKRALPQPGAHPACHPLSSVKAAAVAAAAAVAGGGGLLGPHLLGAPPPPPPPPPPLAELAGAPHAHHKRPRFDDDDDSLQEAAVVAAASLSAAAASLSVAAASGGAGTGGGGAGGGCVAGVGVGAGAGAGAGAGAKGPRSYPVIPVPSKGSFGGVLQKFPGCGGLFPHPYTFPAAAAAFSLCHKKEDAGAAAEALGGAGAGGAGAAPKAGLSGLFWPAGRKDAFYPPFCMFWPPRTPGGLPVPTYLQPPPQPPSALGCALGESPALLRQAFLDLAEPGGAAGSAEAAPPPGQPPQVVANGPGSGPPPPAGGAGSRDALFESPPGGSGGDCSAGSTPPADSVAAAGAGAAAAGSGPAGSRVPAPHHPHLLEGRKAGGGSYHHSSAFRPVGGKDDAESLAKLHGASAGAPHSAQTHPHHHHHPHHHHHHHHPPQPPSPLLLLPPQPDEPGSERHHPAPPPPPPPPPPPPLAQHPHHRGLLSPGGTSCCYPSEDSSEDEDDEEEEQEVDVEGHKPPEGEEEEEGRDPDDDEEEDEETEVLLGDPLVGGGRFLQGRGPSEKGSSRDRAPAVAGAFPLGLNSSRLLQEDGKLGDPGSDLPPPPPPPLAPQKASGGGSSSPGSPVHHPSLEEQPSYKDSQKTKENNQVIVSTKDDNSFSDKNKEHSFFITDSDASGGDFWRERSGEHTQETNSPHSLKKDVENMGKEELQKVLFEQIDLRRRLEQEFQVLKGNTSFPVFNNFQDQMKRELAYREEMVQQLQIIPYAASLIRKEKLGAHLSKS
# This is one part of the list.
# Assays:
# Test in all cases: log2 fold change, soluble protein after heating vs DMSO (PISA); higher = thermal stabilisation; K562 lysate, 10 uM; active = over 0.2 and 3.5 SD of the protein, either way, in both replicates (recomputed)
# nilotinib = compound: Cc1cn(-c2cc(NC(=O)c3ccc(C)c(Nc4nccc(-c5cccnc5)n4)c3)cc(C(F)(F)F)c2)cn1 [nilotinib]
# Procedure, shortened: (§1)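 Soluble protein was defined as the supernatant remaining after 21,000xg for 90 min, following pooling of heated aliquots and adjustment to 0.5% NP-40 at 4°C. Before that, crude K562 extract at 1 mg/mL protein in PBS pH 7.4 with 1 mM MgCl2 was treated with 10 μM compound for 30 min and heated for 3 min across 48°C-58°C. Quantification used TMTpro 16plex LC-MS/MS with channel sums equalised, and values are log-two fold changes in thermal stability relative to solvent controls from duplicates.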
# [1] = compound: Cc1nc(Nc2n[nH]c3c2CN(C(=O)N[C@H](CN(C)C)c2ccccc2)C3(C)C)c2sccc2n1
# Procedure, shortened: as §1
# [2] = compound: Cc1ncc(-c2ccnc(Nc3ccc(S(C)(=O)=O)cc3)n2)n1C(C)C
# Procedure, shortened: as §1
# quisinostat = compound: Cn1cc(CNCC2CCN(c3ncc(C(=O)NO)cn3)CC2)c2ccccc21 [quisinostat]
# Procedure, shortened: as §1
# tipifarnib = compound: Cn1cncc1[C@@](N)(c1ccc(Cl)cc1)c1ccc2c(c1)c(-c1cccc(Cl)c1)cc(=O)n2C [tipifarnib]
# Procedure, shortened: as §1
# [3] = compound: NC(=O)Nc1cc(-c2cccc(F)c2)sc1C(=O)N[C@H]1CCCNC1
# Procedure, shortened: as §1
# dasatinib = compound: Cc1nc(Nc2ncc(C(=O)Nc3c(C)cccc3Cl)s2)cc(N2CCN(CCO)CC2)n1 [dasatinib]
# Procedure, shortened: as §1
# [4] = compound: Cn1cc(-c2ccc3c(c2)CCN3C(=O)Cc2cccc(C(F)(F)F)c2)c2c(N)ncnc21
# Procedure, shortened: as §1
# [5] = compound: NC(=O)c1cnc(N[C@@H]2CCCC[C@@H]2N)nc1Nc1cccc(-n2nccn2)c1
# Procedure, shortened: as §1
# [6] = compound: NC1(c2ccc(-c3nc4ccn5c(=O)[nH]nc5c4cc3-c3ccccc3)cc2)CCC1
# Procedure, shortened: as §1
Target,log2 fold change (nilotinib),log2 fold change [1],log2 fold change [2],log2 fold change (quisinostat),log2 fold change (tipifarnib),log2 fold change [3],log2 fold change (dasatinib),log2 fold change [4],log2 fold change [5],log2 fold change [6]
SIN3B (UniProt O75182),active: 1.42,inactive: -0.15,inactive: 0.839,inactive: -0.079,inactive: 0.086,inactive: 0.077,,,,
SERPINC1 (UniProt P01008),inactive: 0.095,inactive: 0.086,inactive: 0.108,inactive: 0.05,inactive: -0.089,inactive: -0.018,inactive: 0,inactive: 0.002,inactive: 0.013,inactive: -0.044
SIRT5 (UniProt Q9NXA8),inactive: 0.069,inactive: -0.045,inactive: 0.01,inactive: -0.006,inactive: 0.059,inactive: 0.014,inactive: 0.019,inactive: -0.044,inactive: 0.003,inactive: 0.012
SETD2 (UniProt Q9BYW2),inactive: -0.002,inactive: -0.08,inactive: 0.063,inactive: -0.055,inactive: -0.053,inactive: 0,inactive: -0.028,inactive: 0.013,inactive: -0.003,inactive: 0.004
SLC1A4 (UniProt P43007),inactive: -0.006,inactive: 0.009,inactive: 0.006,inactive: 0.025,inactive: -0.014,inactive: -0.028,inactive: 0.051,inactive: -0.026,inactive: 0.021,inactive: 0.021
SH3BGRL2 (UniProt Q9UJC5),inactive: -0.001,inactive: -0.001,inactive: -0.019,inactive: -0.029,inactive: 0.013,inactive: 0.009,inactive: 0.077,inactive: -0.033,inactive: -0.04,inactive: 0.032
SGF29 (UniProt Q96ES7),inactive: -0.007,inactive: -0.012,inactive: 0.027,inactive: -0.041,inactive: -0.017,inactive: 0.016,inactive: 0.009,inactive: 0.05,inactive: 0.033,inactive: -0.025
SLC19A2 (UniProt O60779),inactive: 0.131,inactive: -0.034,inactive: -0.236,,inactive: -0.087,,inactive: -0.054,inactive: -0.083,inactive: -0.061,
SETMAR (UniProt Q53H47),inactive: 0.013,inactive: 0.018,inactive: 0.034,inactive: -0.094,inactive: -0.015,inactive: 0.019,inactive: 0.066,inactive: 0.038,inactive: 0.008,inactive: 0.115
SETD3 (UniProt Q86TU7),inactive: -0.025,inactive: 0.057,inactive: -0.002,inactive: -0.044,inactive: -0.034,inactive: 0.045,inactive: -0.003,inactive: 0.053,inactive: -0.059,inactive: 0.052
SF3B4 (UniProt Q15427),inactive: 0.007,inactive: 0.062,inactive: -0.016,inactive: -0.055,inactive: 0.037,inactive: 0.008,inactive: 0.088,inactive: -0.028,inactive: -0.001,inactive: -0.009
SIRT6 (UniProt Q8N6T7),inactive: 0.03,inactive: -0.099,inactive: -0.011,inactive: -0.084,inactive: 0.024,inactive: -0.134,inactive: -0.03,inactive: 0.106,inactive: 0.032,inactive: 0.048
SFXN1 (UniProt Q9H9B4),inactive: -0.036,inactive: 0.004,inactive: -0.005,inactive: -0.028,inactive: -0.074,inactive: 0.013,inactive: -0.038,inactive: 0.026,inactive: 0.005,inactive: 0.01
SIAH1 isoform 2 (UniProt Q8IUQ4),inactive: 0.058,inactive: 0.115,inactive: 0.02,inactive: -0.016,inactive: -0.178,inactive: 0.01,,,inactive: -0.037,inactive: 0.009
SIPA1L1 (UniProt O43166),inactive: 0.04,inactive: -0.08,inactive: -0.024,inactive: -0.02,inactive: 0,inactive: -0.022,,,inactive: 0.038,inactive: -0.069
SGMS1 (UniProt Q86VZ5),inactive: 0.002,inactive: -0.008,inactive: 0,inactive: 0.099,inactive: -0.006,inactive: -0.028,inactive: 0.011,inactive: -0.001,inactive: -0.033,inactive: 0.001
SIMC1 (UniProt Q8NDZ2),inactive: -0.065,inactive: 0.008,inactive: -0.009,inactive: -0.06,inactive: -0.054,inactive: -0.017,,,,

# Copied from the entries so far for reference:
Target,log2 fold change (nilotinib),log2 fold change [1],log2 fold change [2],log2 fold change (quisinostat),log2 fold change (tipifarnib),log2 fold change [3],log2 fold change (dasatinib),log2 fold change [4],log2 fold change [5],log2 fold change [6]
SERPINC1 (UniProt P01008),inactive: 0.095,inactive: 0.086,inactive: 0.108,inactive: 0.05,inactive: -0.089,inactive: -0.018,inactive: 0,inactive: 0.002,inactive: 0.013,inactive: -0.044
SIRT5 (UniProt Q9NXA8),inactive: 0.069,inactive: -0.045,inactive: 0.01,inactive: -0.006,inactive: 0.059,inactive: 0.014,inactive: 0.019,inactive: -0.044,inactive: 0.003,inactive: 0.012

# (cont.)

Target,log2 fold change (nilotinib),log2 fold change [1],log2 fold change [2],log2 fold change (quisinostat),log2 fold change (tipifarnib),log2 fold change [3],log2 fold change (dasatinib),log2 fold change [4],log2 fold change [5],log2 fold change [6]
SH2B1 (UniProt Q9NRF2),inactive: 0.041,inactive: -0.108,inactive: 0.033,inactive: 0.033,inactive: -0.048,inactive: -0.056,inactive: 0.05,inactive: -0.211,inactive: -0.113,inactive: 0.144
SERPINB5 (UniProt P36952),inactive: 0.029,inactive: -0.066,inactive: -0.423,inactive: 0.016,inactive: -0.219,inactive: -0.232,inactive: 0.162,inactive: -0.119,inactive: 0.063,inactive: 0.219
SHQ1 (UniProt Q6PI26),inactive: -0.07,inactive: -0.01,inactive: 0.002,inactive: -0.067,inactive: -0.104,inactive: 0.012,inactive: -0.339,inactive: 0.108,,inactive: 0.106
SLC11A2 isoform 3 (UniProt P49281),inactive: -0.099,inactive: -0.108,inactive: 0.03,inactive: -0.112,inactive: -0.089,inactive: 0.055,inactive: 0.07,inactive: -0.048,inactive: -0.042,inactive: 0.111
SETD6 (UniProt Q8TBK2),inactive: -0.074,inactive: -0.092,inactive: -0.009,,inactive: 0.004,,inactive: 0.251,inactive: 0.047,,inactive: -0.113
SHMT1 (UniProt P34896),inactive: 0.025,inactive: 0.003,inactive: 0.04,inactive: 0.04,inactive: 0.021,inactive: -0.013,inactive: -0.013,inactive: 0.03,inactive: 0.006,inactive: -0.004
SIRT1 (UniProt Q96EB6),inactive: 0.016,inactive: -0.004,inactive: 0.011,inactive: 0.019,inactive: 0.013,inactive: 0.014,inactive: -0.004,inactive: -0.014,inactive: 0.016,inactive: -0.012
SLC17A5 (UniProt Q9NRA2),inactive: -0.004,inactive: 0.105,inactive: -0.023,,inactive: 0.081,,inactive: -0.186,inactive: 0.168,inactive: -0.165,inactive: -0.029
SH3BGR (UniProt P55822),inactive: 0.002,inactive: 0.007,inactive: -0.013,inactive: -0.027,inactive: 0.034,inactive: 0.026,inactive: 0.081,inactive: -0.155,inactive: -0.014,inactive: -0.009
SHC1 isoform 6 (UniProt P29353),inactive: 0.034,inactive: 0.011,inactive: -0.02,inactive: 0.022,inactive: 0.006,inactive: -0.036,inactive: 0.046,inactive: -0.005,inactive: -0.029,inactive: -0.001
SH3GLB2 (UniProt Q9NR46),inactive: 0.008,inactive: -0.008,inactive: -0.051,inactive: 0.021,inactive: -0.023,inactive: -0.041,inactive: 0,inactive: 0.049,inactive: 0.021,inactive: 0.062
SIK3 (UniProt Q9Y2K2),inactive: 0.132,inactive: 0.201,inactive: -0.078,inactive: -0.046,inactive: -0.087,inactive: 0.19,inactive: 0.101,inactive: -0.296,,inactive: -0.028
SH3BP5L (UniProt Q7L8J4),inactive: -0.056,inactive: 0.037,inactive: 0.04,inactive: 0.007,inactive: -0.01,inactive: 0.007,inactive: -0.023,inactive: -0.025,inactive: 0.013,inactive: -0.033
SHMT1 (UniProt J3KRZ5),inactive: -0.016,inactive: 0.074,inactive: 0.115,,inactive: 0.048,,,,,
SKOR2 (UniProt Q2VWA4),,,,inactive: -0.226,,inactive: 0.064,inactive: -0.026,inactive: -0.017,inactive: 0.059,inactive: -0.062
SET isoform 3 (UniProt Q01105),,,,,,,inactive: -0.101,inactive: -0.071,,
